Data from the M2OR odorant receptor database.
This is a selection; strong and weak results do not stand in their true shares. The calls were merged from several studies; some rest on single wells. The list shows a part of the results. The list shows a part of the results.

Chains of the proteins cited; added tags and fusions are not shown. Lines headed by an entry give the natural chain unless they say otherwise; changes in a name come on top.
UniProt P23270: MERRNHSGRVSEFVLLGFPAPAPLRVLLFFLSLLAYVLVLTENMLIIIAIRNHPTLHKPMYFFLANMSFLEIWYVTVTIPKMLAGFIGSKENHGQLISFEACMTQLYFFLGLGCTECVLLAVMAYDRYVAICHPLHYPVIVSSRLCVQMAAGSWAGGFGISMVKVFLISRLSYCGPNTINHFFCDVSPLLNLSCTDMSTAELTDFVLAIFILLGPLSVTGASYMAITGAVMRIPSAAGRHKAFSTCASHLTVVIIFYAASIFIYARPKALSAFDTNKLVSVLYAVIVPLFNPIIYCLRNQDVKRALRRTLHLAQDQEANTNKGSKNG
UniProt Q8VFV4: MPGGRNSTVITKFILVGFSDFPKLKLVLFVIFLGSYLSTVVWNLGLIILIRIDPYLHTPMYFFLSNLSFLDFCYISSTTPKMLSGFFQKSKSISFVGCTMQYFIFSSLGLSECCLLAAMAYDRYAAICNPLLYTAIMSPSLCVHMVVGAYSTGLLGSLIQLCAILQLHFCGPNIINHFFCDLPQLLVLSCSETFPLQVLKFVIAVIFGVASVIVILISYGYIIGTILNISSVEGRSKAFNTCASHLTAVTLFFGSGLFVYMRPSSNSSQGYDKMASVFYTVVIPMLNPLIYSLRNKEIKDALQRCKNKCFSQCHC
UniProt Q8VEZ0: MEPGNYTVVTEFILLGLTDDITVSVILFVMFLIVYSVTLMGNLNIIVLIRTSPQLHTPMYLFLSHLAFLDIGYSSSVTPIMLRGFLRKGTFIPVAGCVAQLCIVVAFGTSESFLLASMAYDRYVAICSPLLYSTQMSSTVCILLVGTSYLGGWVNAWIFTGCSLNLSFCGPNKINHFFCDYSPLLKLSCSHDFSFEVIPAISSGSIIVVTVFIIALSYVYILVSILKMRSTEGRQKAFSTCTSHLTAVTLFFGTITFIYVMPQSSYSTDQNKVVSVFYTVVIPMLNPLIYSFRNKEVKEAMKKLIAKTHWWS

What was measured:
Conditions in all cases: stereoisomer not certain
[1] = biological target: Olr226 (Rattus norvegicus) (UniProt P23270)
Outline: (§1)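 Transient luciferase assays in mammalian cell lines were common, though methods varied by source. The values come from published papers and their supplementary material, with extra details from the original authors when needed. Responsive refers to a measured signal the original authors judged statistically different from baseline, and non-responsive (inactive) to the remainder.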

[2] = biological target: T1, Or1m1 (Mus musculus) (UniProt Q8VFM9)
T1 sequence (whole entry): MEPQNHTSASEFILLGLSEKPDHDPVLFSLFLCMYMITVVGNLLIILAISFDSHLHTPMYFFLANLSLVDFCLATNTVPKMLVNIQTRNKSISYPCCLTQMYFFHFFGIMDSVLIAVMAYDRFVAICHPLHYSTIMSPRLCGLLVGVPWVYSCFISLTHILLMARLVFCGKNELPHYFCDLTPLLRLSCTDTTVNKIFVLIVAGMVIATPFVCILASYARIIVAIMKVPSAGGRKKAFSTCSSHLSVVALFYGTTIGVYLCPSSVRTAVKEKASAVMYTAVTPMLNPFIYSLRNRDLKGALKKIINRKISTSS
Outline: as §1

[3] = biological target: T2, Or5ar1 (Mus musculus) (UniProt Q8VGS3)
T2 sequence (whole entry): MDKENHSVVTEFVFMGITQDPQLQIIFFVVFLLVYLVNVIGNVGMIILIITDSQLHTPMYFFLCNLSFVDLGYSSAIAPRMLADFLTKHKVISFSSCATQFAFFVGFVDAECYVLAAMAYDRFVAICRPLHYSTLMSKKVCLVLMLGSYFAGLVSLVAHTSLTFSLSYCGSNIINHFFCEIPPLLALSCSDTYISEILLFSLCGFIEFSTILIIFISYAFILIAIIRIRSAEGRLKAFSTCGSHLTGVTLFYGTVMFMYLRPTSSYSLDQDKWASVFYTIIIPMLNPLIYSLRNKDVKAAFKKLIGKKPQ
Outline: as §1

[4] = biological target: T3, Or10j5 (Mus musculus) (UniProt Q62007)
T3 sequence (whole entry): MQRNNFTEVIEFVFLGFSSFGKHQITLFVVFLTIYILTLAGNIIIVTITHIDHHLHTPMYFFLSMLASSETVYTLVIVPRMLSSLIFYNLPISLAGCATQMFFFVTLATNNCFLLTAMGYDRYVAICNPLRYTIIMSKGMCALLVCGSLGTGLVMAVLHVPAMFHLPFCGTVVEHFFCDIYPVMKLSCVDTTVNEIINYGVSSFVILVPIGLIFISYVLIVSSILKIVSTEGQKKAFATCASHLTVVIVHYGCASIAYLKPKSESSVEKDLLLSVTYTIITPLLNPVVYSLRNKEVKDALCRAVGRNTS
Outline: as §1

[5] = biological target: T4, Or2c1 (Mus musculus) (UniProt P23275)
T4 sequence (whole entry): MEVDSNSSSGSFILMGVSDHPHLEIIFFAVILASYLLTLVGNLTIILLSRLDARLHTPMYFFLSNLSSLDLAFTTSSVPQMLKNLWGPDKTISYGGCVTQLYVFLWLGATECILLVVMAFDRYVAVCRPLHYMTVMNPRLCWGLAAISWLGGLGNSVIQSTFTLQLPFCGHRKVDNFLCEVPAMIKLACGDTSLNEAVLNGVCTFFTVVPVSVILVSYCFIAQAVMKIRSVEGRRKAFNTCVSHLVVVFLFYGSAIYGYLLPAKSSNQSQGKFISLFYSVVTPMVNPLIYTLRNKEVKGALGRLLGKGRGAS
Outline: as §1

[6] = test system: T5, OR9Q2
T5 sequence (whole entry): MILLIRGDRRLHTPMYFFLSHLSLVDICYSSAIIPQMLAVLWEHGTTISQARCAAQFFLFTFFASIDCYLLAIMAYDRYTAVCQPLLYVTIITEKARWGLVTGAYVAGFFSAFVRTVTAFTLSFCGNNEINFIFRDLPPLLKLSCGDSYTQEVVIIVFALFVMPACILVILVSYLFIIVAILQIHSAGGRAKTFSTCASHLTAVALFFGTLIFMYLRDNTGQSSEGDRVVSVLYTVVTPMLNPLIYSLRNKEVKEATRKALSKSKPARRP
Outline: as §1

[7] = test system: T6, ORM2B
T6 sequence (whole entry): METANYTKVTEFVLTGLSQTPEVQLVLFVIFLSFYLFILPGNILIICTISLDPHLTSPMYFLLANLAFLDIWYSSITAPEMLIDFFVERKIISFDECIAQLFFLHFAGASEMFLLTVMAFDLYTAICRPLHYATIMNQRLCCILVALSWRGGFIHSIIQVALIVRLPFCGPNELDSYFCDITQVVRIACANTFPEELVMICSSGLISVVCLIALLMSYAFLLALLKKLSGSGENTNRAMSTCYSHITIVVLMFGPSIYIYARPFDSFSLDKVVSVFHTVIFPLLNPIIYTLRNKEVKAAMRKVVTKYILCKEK
Outline: as §1

[8] = biological target: Or5an6 (Mus musculus) (UniProt Q8VFV4)
Outline: as §1

[9] = biological target: Or5p57 (Mus musculus) (UniProt Q8VEZ0)
Outline: as §1

Measured: odorant receptor agonist call

CC(=O)C(C)=O
inactive: [1] | [2] | [3]

CCCCCCCC=O
active: [1] | [4]
inactive: [2] | [5] | [3]

CCCCCCCCCCC=O
inactive: [4]

For reference, 2 of the compounds above:
CC(=O)C(C)=O
inactive: [1] | [2] | [3]

CCCCCCCC=O
active: [1] | [4]
inactive: [2] | [5] | [3]

Later entries.

COc1cc(C=O)ccc1O
inactive: [6] | [7] | [2] | [3]

CCCCCOC(C)=O
inactive: [6] | [7] | [4] | [2] | [3]

CCCCCC(C)=O
inactive: [6] | [7] | [2] | [5] | [3]

O=C1CCCCC1
active: [5]
inactive: [6] | [7] | [8] | [3]

CCCCCC(=O)O
inactive: [6] | [7] | [4] | [2] | [5] | [3] | [9]

CC(C)C=O
inactive: [6] | [7] | [2] | [3]

CC(C)CC(=O)O
inactive: [6] | [7] | [4] | [2] | [3]

CC(C)(O)CCCC1=CCC(C=O)CC1 (stereo unspecified)
active: [4] | [5]
inactive: [2] | [3]

CC(=O)c1ccccc1
inactive: [6] | [7] | [4] | [2] | [5] | [3]

COC(=O)c1ccccc1O
inactive: [6] | [7] | [2] | [3]

CC12CCC(C1)C(C)(C)C2=O (stereo unspecified)
inactive: [6] | [7] | [5] | [3]

C=CCc1ccc(O)c(OC)c1
inactive: [4] | [2] | [3]

CCCCCCCCC=O
inactive: [4] | [2] | [5] | [3]

c1cnccn1
inactive: [6] | [7] | [2] | [3]

COc1ccccc1O
inactive: [6] | [7] | [2] | [3]

C=CC(C)(O)CCC=C(C)C (stereo unspecified)
inactive: [6] | [7] | [2] | [3]
